These are yes or no findings as the source states them, for the method shown.

Amino acid sequences for entries named in this document (tags omitted). A change or cut given only in a name is not applied to a line headed by its entry. Chains listed by the source or under a name are the forms on record and can include a tag or linker. Residues count along the entry.
NF2 C-terminal half of isoform 1 (AA M308-595) (P35240, residues 308-595): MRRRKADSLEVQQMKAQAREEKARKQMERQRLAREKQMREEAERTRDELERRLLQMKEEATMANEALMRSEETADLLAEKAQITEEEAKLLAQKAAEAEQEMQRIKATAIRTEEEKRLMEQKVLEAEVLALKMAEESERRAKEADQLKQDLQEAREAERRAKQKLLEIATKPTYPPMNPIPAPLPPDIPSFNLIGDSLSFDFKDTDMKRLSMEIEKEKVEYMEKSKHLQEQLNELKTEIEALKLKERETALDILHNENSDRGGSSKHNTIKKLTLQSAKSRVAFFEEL
NF2 C-terminal half of isoform 7 (AA M225-507) (P35240-4, form named): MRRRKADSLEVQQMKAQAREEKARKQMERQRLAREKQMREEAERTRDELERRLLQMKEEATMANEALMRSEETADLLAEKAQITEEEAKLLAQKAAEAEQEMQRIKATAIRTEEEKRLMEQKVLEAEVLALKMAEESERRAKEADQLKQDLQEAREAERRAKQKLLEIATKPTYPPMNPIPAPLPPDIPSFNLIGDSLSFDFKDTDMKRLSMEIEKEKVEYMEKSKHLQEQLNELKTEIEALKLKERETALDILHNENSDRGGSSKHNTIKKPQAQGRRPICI
UniProt Q9Y6C2: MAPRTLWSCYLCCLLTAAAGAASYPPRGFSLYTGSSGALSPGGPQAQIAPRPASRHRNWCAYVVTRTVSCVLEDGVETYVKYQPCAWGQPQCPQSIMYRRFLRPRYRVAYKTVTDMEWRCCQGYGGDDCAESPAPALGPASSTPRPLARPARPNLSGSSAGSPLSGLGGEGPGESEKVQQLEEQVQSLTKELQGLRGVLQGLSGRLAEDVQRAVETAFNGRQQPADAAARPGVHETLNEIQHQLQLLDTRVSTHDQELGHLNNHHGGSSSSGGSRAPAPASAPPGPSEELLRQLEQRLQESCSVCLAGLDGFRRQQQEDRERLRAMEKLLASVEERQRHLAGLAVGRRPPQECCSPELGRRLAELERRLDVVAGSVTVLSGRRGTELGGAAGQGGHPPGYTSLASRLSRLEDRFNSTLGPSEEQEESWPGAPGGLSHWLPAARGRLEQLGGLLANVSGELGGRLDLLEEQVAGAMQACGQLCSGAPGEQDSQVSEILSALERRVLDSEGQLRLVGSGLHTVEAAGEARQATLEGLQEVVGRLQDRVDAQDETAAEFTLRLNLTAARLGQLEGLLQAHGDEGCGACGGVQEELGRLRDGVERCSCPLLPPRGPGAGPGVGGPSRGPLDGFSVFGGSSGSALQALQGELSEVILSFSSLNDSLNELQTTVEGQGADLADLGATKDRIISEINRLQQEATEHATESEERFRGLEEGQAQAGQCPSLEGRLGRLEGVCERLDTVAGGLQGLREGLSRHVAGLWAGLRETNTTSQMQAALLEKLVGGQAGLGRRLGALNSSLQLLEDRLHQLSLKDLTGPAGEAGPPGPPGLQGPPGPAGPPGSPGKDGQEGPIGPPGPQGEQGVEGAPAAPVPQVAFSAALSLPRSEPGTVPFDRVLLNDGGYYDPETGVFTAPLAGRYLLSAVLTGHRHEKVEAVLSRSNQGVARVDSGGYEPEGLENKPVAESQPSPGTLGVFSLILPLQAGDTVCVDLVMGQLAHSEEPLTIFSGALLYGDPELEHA

The target of this experiment is NF2 isoform 1 with an exon 16 derived C-terminus (human) (UniProt P35240). In words: two-hybrid; Y2H colony matrix (Fig 1B): NF2 constructs as bait, partners as prey; growth of diploid yeast on selective agar; each pair tested with active tyrosine kinase ABL2 and with kinase-dead ABL2KD (K35M) co-expressed.
Turning to “NF2 C-terminal half of isoform 1 (AA M308-595) (from UniProt P35240-1 308-595) (domain or fragment)”, the binding entry is on record as “no binding”. In the case of “phosphoinositide-3-kinase regulatory subunit 3 (from UniProt Q92569 1-461)” it was “no binding”; in that of “elastin microfibril interfacer 1 protein (from UniProt Q9Y6C2 1-1016)”, “no binding”; in that of “NF2 C-terminal half of isoform 7 (AA M225-507) (from UniProt P35240-4 225-507) (domain or fragment)”, “no binding”.

Values taken from article PMC10244618.
